Data source: PubChem BioAssay AID504804 (Drosophila RNAi Screening Center, 2011)

Purpose: 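Knock-downs shielding fly cells from apoptosis caused by DNA damage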 (primary screen)
Cells: Drosophila Kc cells
Reagents: long dsRNA against Drosophila genes, 0.5 µg dsRNA per well
Timing: 96 h (48 h knock-down, then 48 h drug)
Treatment: doxorubicin 5 µg/ml for 48 h, added 48 h after dsRNA
Detection: 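Luminescent ATP counts per replicate, not normalised, reflecting viable cells after 48 h dsRNA knock-down followed by 48 h of 5 µg/ml doxorubicin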
Reading the numbers: raw ATP luminescence: higher = more viable cells, protection from doxorubicin
Call rule: 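Active when both duplicate wells lie at least 2 SD above the plate mean and protection is confirmed by rescreening and independent dsRNAs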
In all, the deposit lists about 19,000 reagents; this is an unselected part of those that have a named target and a result. Over the whole deposit, 47 (0.25%) are marked active. 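Signals are raw, not normalised; exact z-scores behind calls not deposited; actives needed confirmation, so some wells reaching 2 SD are inactive.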 Reagents against one gene are numbered here. A plus sign joins genes that one reagent is predicted to hit. No sequences are given here.

gene knocked down | reagent | raw ATP luminescence, replicate 1 | raw ATP luminescence, replicate 2 | Call
CG32488 | 1 | 2.47e5 | 2.63e5 | inactive
CG13362 | 1 | 53930 | 68490 | inactive
CG3764 | 1 | 19377 | 18267 | inactive
Ankrd49 | 1 | 71807 | 70633 | inactive
pall | 1 | 37620 | 43100 | inactive
CG15153 | 1 | 57897 | 63793 | inactive
CG15550 | 1 | 55970 | 36510 | inactive
CG9344 | 1 | 58097 | 55443 | inactive
flr | 1 | 45693 | 53660 | inactive
pirk | 1 | 69190 | 69793 | inactive
kn | 1 | 72300 | 91017 | inactive
kn | 2 | 76790 | 94383 | inactive
CG11779 + CG5835 | 1 | 44980 | 54340 | inactive
Cpr66Cb | 1 | 78883 | 73367 | inactive
Caf1-55 | 1 | 49697 | 22837 | inactive
TAF1C-like | 1 | 90023 | 63717 | inactive
CG15831 (retired record) | 1 | 2.93e5 | 2.66e5 | inactive
Irbp18 | 1 | 91980 | 1.58e5 | inactive
CG7071 + Muted | 1 | 61350 | 46670 | inactive
CG2898 | 1 | 3.39e5 | 2.88e5 | inactive
Adh + Adhr | 1 | 98753 | 72410 | inactive
Adh + Adhr | 2 | 51360 | 52387 | inactive
CG32532 | 1 | 3.42e5 | 3.03e5 | inactive
CG32532 | 2 | 3.21e5 | 3.42e5 | inactive
CG32532 | 3 | 3.87e5 | 3.83e5 | inactive
CG6607 | 1 | 65910 | 68520 | inactive
bbg | 1 | 50057 | 45210 | inactive
bbg | 2 | 42957 | 39043 | inactive
dock | 1 | 1.30e5 | 59177 | inactive
by | 1 | 56803 | 62637 | inactive
Myo28B1 | 1 | 27573 | 28503 | inactive
nAChRalpha6 | 1 | 2.90e5 | 2.98e5 | inactive
nAChRalpha6 | 2 | 66523 | 56450 | inactive
CG18547 | 1 | 49227 | 46340 | inactive
CG12877 | 1 | 47720 | 45830 | inactive
CG1077 | 1 | 61100 | 63303 | inactive
tau | 1 | 26420 | 29490 | inactive
sick | 1 | 54793 | 56057 | inactive
sick | 2 | 58210 | 37737 | inactive
sick | 3 | 34293 | 38713 | inactive
sick | 4 | 31503 | 29077 | inactive
sick | 5 | 66023 | 45893 | inactive
Rbpn-5 | 1 | 62613 | 60997 | inactive

In a second layout: results already given.
{"gene knocked down": "Adh + Adhr", "reagent": 1, "raw ATP luminescence, replicate 1": 98753, "raw ATP luminescence, replicate 2": 72410, "Call": "inactive"}
{"gene knocked down": "Adh + Adhr", "reagent": 2, "raw ATP luminescence, replicate 1": 51360, "raw ATP luminescence, replicate 2": 52387, "Call": "inactive"}
{"gene knocked down": "CG32532", "reagent": 1, "raw ATP luminescence, replicate 1": 3.42e5, "raw ATP luminescence, replicate 2": 3.03e5, "Call": "inactive"}
{"gene knocked down": "CG32532", "reagent": 2, "raw ATP luminescence, replicate 1": 3.21e5, "raw ATP luminescence, replicate 2": 3.42e5, "Call": "inactive"}
{"gene knocked down": "CG32532", "reagent": 3, "raw ATP luminescence, replicate 1": 3.87e5, "raw ATP luminescence, replicate 2": 3.83e5, "Call": "inactive"}
{"gene knocked down": "CG6607", "reagent": 1, "raw ATP luminescence, replicate 1": 65910, "raw ATP luminescence, replicate 2": 68520, "Call": "inactive"}
{"gene knocked down": "bbg", "reagent": 1, "raw ATP luminescence, replicate 1": 50057, "raw ATP luminescence, replicate 2": 45210, "Call": "inactive"}
{"gene knocked down": "bbg", "reagent": 2, "raw ATP luminescence, replicate 1": 42957, "raw ATP luminescence, replicate 2": 39043, "Call": "inactive"}
{"gene knocked down": "dock", "reagent": 1, "raw ATP luminescence, replicate 1": 1.30e5, "raw ATP luminescence, replicate 2": 59177, "Call": "inactive"}
{"gene knocked down": "by", "reagent": 1, "raw ATP luminescence, replicate 1": 56803, "raw ATP luminescence, replicate 2": 62637, "Call": "inactive"}
{"gene knocked down": "Myo28B1", "reagent": 1, "raw ATP luminescence, replicate 1": 27573, "raw ATP luminescence, replicate 2": 28503, "Call": "inactive"}
{"gene knocked down": "nAChRalpha6", "reagent": 1, "raw ATP luminescence, replicate 1": 2.90e5, "raw ATP luminescence, replicate 2": 2.98e5, "Call": "inactive"}
{"gene knocked down": "nAChRalpha6", "reagent": 2, "raw ATP luminescence, replicate 1": 66523, "raw ATP luminescence, replicate 2": 56450, "Call": "inactive"}
{"gene knocked down": "CG18547", "reagent": 1, "raw ATP luminescence, replicate 1": 49227, "raw ATP luminescence, replicate 2": 46340, "Call": "inactive"}
{"gene knocked down": "CG12877", "reagent": 1, "raw ATP luminescence, replicate 1": 47720, "raw ATP luminescence, replicate 2": 45830, "Call": "inactive"}
{"gene knocked down": "CG1077", "reagent": 1, "raw ATP luminescence, replicate 1": 61100, "raw ATP luminescence, replicate 2": 63303, "Call": "inactive"}
{"gene knocked down": "tau", "reagent": 1, "raw ATP luminescence, replicate 1": 26420, "raw ATP luminescence, replicate 2": 29490, "Call": "inactive"}

More entries follow.
gene knocked down | reagent | raw ATP luminescence, replicate 1 | raw ATP luminescence, replicate 2 | Call
Np | 1 | 30853 | 65627 | inactive
Np | 2 | 38443 | 71720 | inactive
CG11164 | 1 | 3.28e5 | 2.66e5 | inactive
DIP-eta | 1 | 24207 | 34840 | inactive
yellow-d | 1 | 36413 | 59820 | inactive
Nfs1 | 1 | 89673 | 64840 | inactive
Nup37 | 1 | 64260 | 57150 | inactive
Arfip | 1 | 57900 | 28660 | inactive
CG10444 | 1 | 55207 | 78973 | inactive
ClpX | 1 | 28430 | 32267 | inactive
mgr | 1 | 63103 | 56770 | inactive
tex | 1 | 39743 | 38427 | inactive
CG13083 | 1 | 62320 | 64327 | inactive
CG6254 | 1 | 61073 | 19790 | inactive
CG4582 | 1 | 50530 | 54420 | inactive
CG4998 | 1 | 78237 | 69000 | inactive
CG42238 | 1 | 61240 | 74347 | inactive
sau | 1 | 1.12e5 | 1.08e5 | inactive
side-IV + CG17025 (retired record) | 1 | 73180 | 80920 | inactive
Df31 | 1 | 74580 | 59333 | inactive
Diedel3 | 1 | 3.64e5 | 3.12e5 | inactive
CG12493 | 1 | 92460 | 78763 | inactive
resilin | 1 | 1.85e5 | 1.26e5 | inactive
Cpr97Eb | 1 | 62150 | 51200 | inactive
Drep2 | 1 | 43680 | 44343 | inactive
CG10700 | 1 | 54820 | 52773 | inactive
Hacl | 1 | 54947 | 55873 | inactive
CG13023 | 1 | 77787 | 1.01e5 | inactive
CG13023 | 2 | 61410 | 43393 | inactive
axed | 1 | 1.88e5 | 1.78e5 | inactive
axed | 2 | 82147 | 79047 | inactive
CG34046 (retired record) | 1 | 1.92e5 | 1.91e5 | inactive
CG30089 | 1 | 57107 | 57677 | inactive
CG30089 | 2 | 1.73e5 | 1.90e5 | inactive
IntS14 | 1 | 1.14e5 | 63930 | inactive
Fadd | 1 | 80660 | 78150 | inactive
H15 | 1 | 27043 | 28930 | inactive
Irp-1B | 1 | 60583 | 56747 | inactive
Lsd-1 | 1 | 35267 | 34987 | inactive
RpL9 | 1 | 22020 | 29060 | inactive
bru1 | 1 | 1.02e5 | 90080 | inactive
bru1 | 2 | 1.68e5 | 1.37e5 | inactive
bru1 | 3 | 2.73e5 | 2.46e5 | inactive
bru1 | 4 | 3.00e5 | 3.30e5 | inactive
bru1 | 5 | 70840 | 57963 | inactive
Vha44 | 1 | 63233 | 74523 | inactive
RnrL | 1 | 80153 | 60937 | inactive
CG1138 | 1 | 52930 | 58920 | inactive
TTLL15 | 1 | 62823 | 50260 | inactive
CG31161 | 1 | 61420 | 59940 | inactive
CG1092 | 1 | 32883 | 34843 | inactive
qkr58E-3 | 1 | 62070 | 65967 | inactive
CG6707 | 1 | 72207 | 60573 | inactive
Msh6 | 1 | 90313 | 59567 | inactive
ddbt | 1 | 1.57e5 | 1.68e5 | inactive
Tcs3 | 1 | 46863 | 38713 | inactive
alpha-Est5 | 1 | 49780 | 30583 | inactive
CG33120 | 1 | 99407 | 93007 | inactive
TwdlK | 1 | 26490 | 30360 | inactive
CG42843 (retired record) | 1 | 3.29e5 | 3.19e5 | inactive
CG42843 (retired record) | 2 | 49920 | 73390 | inactive
CG42843 (retired record) | 3 | 46967 | 69623 | inactive
rad (retired record) | 1 | 3.90e5 | 3.60e5 | inactive
Elba2 | 1 | 96813 | 70420 | inactive
